# The other results are listed elsewhere or left out. Single values are uncertain, as repeats are few or missing.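 Cells were imaged in 1,536-well plates, and nuclei stained with an antibody against cleaved PARP were counted against all DNA-stained nuclei to give the apoptosis fraction. Screening doses were chosen to leave most cells alive, and resting and induced cleaved-PARP levels differ strongly between cell lines.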
# How the values were obtained:
# Experiment in all cases: cleaved PARP positive nuclei fraction relative to DMSO control; melanoma cells; higher = more apoptosis
# Conditions in all cases: library dose: low library concentration; 72 h
# CBRC034 = test system: CBRC034 (line from a melanoma biopsy)
# COLO792 = test system: COLO792
# COLO800 = test system: COLO800
# COLO829 = test system: COLO829
# G361 = test system: G361
# IPC-298 = test system: IPC-298
# IST-MEL1 = test system: IST-MEL1
# LB2518-MEL = test system: LB2518-MEL
# LOXIMVI = test system: LOXIMVI
# MEL-HO = test system: MEL-HO
compound,measurement,setting,value
"C[C@]1(O)C[C@@H](c2nc(-c3ccc4ccc(-c5ccccc5)nc4c3)c3c(N)nccn32)C1 + CO[C@H]1C[C@@H]2CC[C@@H](C)[C@@](O)(O2)C(=O)C(=O)N2CCCC[C@H]2C(=O)O[C@H]([C@H](C)C[C@@H]2CC[C@@H](OCCO)[C@H](OC)C2)CC(=O)[C@H](C)/C=C(\C)[C@@H](O)[C@@H](OC)C(=O)[C@H](C)C[C@H](C)/C=C/C=C/C=C/1C [everolimus] (first compound 0.4 µM, partner dose 0.02 µM)",cleaved PARP positive nuclei fraction,CBRC034,102%
same,cleaved PARP positive nuclei fraction,COLO792,224%
same,cleaved PARP positive nuclei fraction,COLO800,245%
same,cleaved PARP positive nuclei fraction,COLO829,169%
same,cleaved PARP positive nuclei fraction,G361,279%
same,cleaved PARP positive nuclei fraction,IPC-298,231%
same,cleaved PARP positive nuclei fraction,IST-MEL1,117%
same,cleaved PARP positive nuclei fraction,LB2518-MEL,183%
same,cleaved PARP positive nuclei fraction,LOXIMVI,209%
same,cleaved PARP positive nuclei fraction,MEL-HO,28.7%
"CCN(CC)CCNC(=O)c1c(C)[nH]c(/C=C2\C(=O)Nc3ccc(F)cc32)c1C [sunitinib] + CO[C@H]1C[C@@H]2CC[C@@H](C)[C@@](O)(O2)C(=O)C(=O)N2CCCC[C@H]2C(=O)O[C@H]([C@H](C)C[C@@H]2CC[C@@H](OCCO)[C@H](OC)C2)CC(=O)[C@H](C)/C=C(\C)[C@@H](O)[C@@H](OC)C(=O)[C@H](C)C[C@H](C)/C=C/C=C/C=C/1C [everolimus] (first compound 0.4 µM, partner dose 0.02 µM)",cleaved PARP positive nuclei fraction,CBRC034,102%
same,cleaved PARP positive nuclei fraction,COLO792,174%
same,cleaved PARP positive nuclei fraction,COLO800,192%
same,cleaved PARP positive nuclei fraction,COLO829,67.4%
same,cleaved PARP positive nuclei fraction,G361,146%
same,cleaved PARP positive nuclei fraction,IPC-298,164%
same,cleaved PARP positive nuclei fraction,IST-MEL1,501%
same,cleaved PARP positive nuclei fraction,LB2518-MEL,32.9%
same,cleaved PARP positive nuclei fraction,LOXIMVI,501%
same,cleaved PARP positive nuclei fraction,MEL-HO,112%
"CS(=O)(=O)c1ccc(C(=O)Nc2ccc(Cl)c(-c3ccccn3)c2)c(Cl)c1 [vismodegib] + COCC[n+]1c2c(n(Cc3cnccn3)c1C)C(=O)c1ccccc1C2=O [YM155] (first compound 1 µM, partner dose 0.0004 µM)",cleaved PARP positive nuclei fraction,CBRC034,116%
same,cleaved PARP positive nuclei fraction,COLO792,102%
same,cleaved PARP positive nuclei fraction,COLO800,147%
same,cleaved PARP positive nuclei fraction,COLO829,212%
same,cleaved PARP positive nuclei fraction,G361,94.5%
same,cleaved PARP positive nuclei fraction,IPC-298,135%
same,cleaved PARP positive nuclei fraction,IST-MEL1,135%
same,cleaved PARP positive nuclei fraction,LB2518-MEL,110%
same,cleaved PARP positive nuclei fraction,LOXIMVI,76.6%
same,cleaved PARP positive nuclei fraction,MEL-HO,75.2%
"CCN(CC)CCNC(=O)c1c(C)[nH]c(/C=C2\C(=O)Nc3ccc(F)cc32)c1C [sunitinib] + Nc1cccc2c1CN(C1CCC(=O)NC1=O)C2=O [lenalidomide] (first compound 0.4 µM, partner dose 1 µM)",cleaved PARP positive nuclei fraction,CBRC034,78.4%
same,cleaved PARP positive nuclei fraction,COLO792,321%
same,cleaved PARP positive nuclei fraction,COLO800,93.2%
same,cleaved PARP positive nuclei fraction,COLO829,122%
same,cleaved PARP positive nuclei fraction,G361,142%
same,cleaved PARP positive nuclei fraction,IPC-298,41.8%
same,cleaved PARP positive nuclei fraction,IST-MEL1,132%
same,cleaved PARP positive nuclei fraction,LB2518-MEL,109%
same,cleaved PARP positive nuclei fraction,LOXIMVI,57.3%
same,cleaved PARP positive nuclei fraction,MEL-HO,64.6%
"NC1(c2ccc(-c3nc4ccn5c(=O)[nH]nc5c4cc3-c3ccccc3)cc2)CCC1 + Nc1ncn([C@H]2C[C@H](O)[C@@H](CO)O2)c(=O)n1 [decitabine] (first compound 0.4 µM, partner dose 0.1 µM)",cleaved PARP positive nuclei fraction,CBRC034,92.2%
same,cleaved PARP positive nuclei fraction,COLO792,102%
same,cleaved PARP positive nuclei fraction,COLO800,90.5%
same,cleaved PARP positive nuclei fraction,COLO829,189%
same,cleaved PARP positive nuclei fraction,G361,34.5%
same,cleaved PARP positive nuclei fraction,IPC-298,273%
same,cleaved PARP positive nuclei fraction,IST-MEL1,162%
same,cleaved PARP positive nuclei fraction,LB2518-MEL,60.9%
same,cleaved PARP positive nuclei fraction,LOXIMVI,247%
same,cleaved PARP positive nuclei fraction,MEL-HO,105%
"C[C@@H](N)c1ccc(C(=O)Nc2ccnc3[nH]ccc23)cc1 + CNC(=O)c1cc(Oc2ccc(NC(=O)Nc3ccc(Cl)c(C(F)(F)F)c3)cc2)ccn1 [sorafenib] (first compound 0.4 µM, partner dose 0.4 µM)",cleaved PARP positive nuclei fraction,CBRC034,216%
same,cleaved PARP positive nuclei fraction,COLO792,182%
same,cleaved PARP positive nuclei fraction,COLO800,78.8%
same,cleaved PARP positive nuclei fraction,COLO829,90.6%
same,cleaved PARP positive nuclei fraction,G361,215%
same,cleaved PARP positive nuclei fraction,IPC-298,246%
same,cleaved PARP positive nuclei fraction,IST-MEL1,116%
same,cleaved PARP positive nuclei fraction,LB2518-MEL,31.3%
same,cleaved PARP positive nuclei fraction,LOXIMVI,114%
same,cleaved PARP positive nuclei fraction,MEL-HO,188%
"COc1ccc(C2=N[C@@H](c3ccc(Cl)cc3)[C@@H](c3ccc(Cl)cc3)N2C(=O)N2CCNC(=O)C2)c(OC(C)C)c1 [Nutlin-3] + CNC(=O)c1cc(Oc2ccc(NC(=O)Nc3ccc(Cl)c(C(F)(F)F)c3)cc2)ccn1 [sorafenib] (first compound 0.1 µM, partner dose 0.4 µM)",cleaved PARP positive nuclei fraction,CBRC034,160%
same,cleaved PARP positive nuclei fraction,COLO792,44.9%
same,cleaved PARP positive nuclei fraction,COLO800,191%
same,cleaved PARP positive nuclei fraction,COLO829,60.3%
same,cleaved PARP positive nuclei fraction,G361,48.6%
same,cleaved PARP positive nuclei fraction,IPC-298,95.9%
same,cleaved PARP positive nuclei fraction,IST-MEL1,57.6%
same,cleaved PARP positive nuclei fraction,LB2518-MEL,117%
same,cleaved PARP positive nuclei fraction,LOXIMVI,66.4%
same,cleaved PARP positive nuclei fraction,MEL-HO,43.4%
"NC1(c2ccc(-c3nc4ccn5c(=O)[nH]nc5c4cc3-c3ccccc3)cc2)CCC1 + OCc1c[nH]c2ccccc12 [Indole-3-carbinol] (first compound 0.4 µM, partner dose 0.8 µM)",cleaved PARP positive nuclei fraction,CBRC034,71.8%
same,cleaved PARP positive nuclei fraction,COLO792,122%
same,cleaved PARP positive nuclei fraction,COLO800,83.1%
same,cleaved PARP positive nuclei fraction,COLO829,85.2%
same,cleaved PARP positive nuclei fraction,G361,91.1%
same,cleaved PARP positive nuclei fraction,IPC-298,142%
same,cleaved PARP positive nuclei fraction,IST-MEL1,64.5%
same,cleaved PARP positive nuclei fraction,LB2518-MEL,106%
same,cleaved PARP positive nuclei fraction,LOXIMVI,141%
same,cleaved PARP positive nuclei fraction,MEL-HO,151%
"COc1ccc(C2=N[C@@H](c3ccc(Cl)cc3)[C@@H](c3ccc(Cl)cc3)N2C(=O)N2CCNC(=O)C2)c(OC(C)C)c1 [Nutlin-3] + O=C(O)[C@@H]1[O][Sb](=[O])([O][Sb]2(=[O])[O][C@H]([C@H](O)CO)[C@H](O)[C@H](C(=O)O)[O]2)[O][C@H]([C@H](O)CO)[C@@H]1O [stibogluconate] (first compound 0.1 µM, partner dose 2 µM)",cleaved PARP positive nuclei fraction,CBRC034,20.4%
same,cleaved PARP positive nuclei fraction,COLO792,95%
same,cleaved PARP positive nuclei fraction,COLO800,91.6%
same,cleaved PARP positive nuclei fraction,COLO829,74.5%
same,cleaved PARP positive nuclei fraction,G361,138%
same,cleaved PARP positive nuclei fraction,IPC-298,149%
same,cleaved PARP positive nuclei fraction,IST-MEL1,62.8%
same,cleaved PARP positive nuclei fraction,LB2518-MEL,107%
same,cleaved PARP positive nuclei fraction,LOXIMVI,75.5%
same,cleaved PARP positive nuclei fraction,MEL-HO,200%

# Some of the entries so far, with bars between the fields.
compound | measurement | setting | value
NC1(c2ccc(-c3nc4ccn5c(=O)[nH]nc5c4cc3-c3ccccc3)cc2)CCC1 + Nc1ncn([C@H]2C[C@H](O)[C@@H](CO)O2)c(=O)n1 [decitabine] (first compound 0.4 µM, partner dose 0.1 µM) | cleaved PARP positive nuclei fraction | LOXIMVI | 247%
same | cleaved PARP positive nuclei fraction | MEL-HO | 105%
C[C@@H](N)c1ccc(C(=O)Nc2ccnc3[nH]ccc23)cc1 + CNC(=O)c1cc(Oc2ccc(NC(=O)Nc3ccc(Cl)c(C(F)(F)F)c3)cc2)ccn1 [sorafenib] (first compound 0.4 µM, partner dose 0.4 µM) | cleaved PARP positive nuclei fraction | CBRC034 | 216%

# From the supplement of paper PMC4604168 (melanoma cell lines)
